Laboratory results: PubChem BioAssay AID686938 (Drosophila RNAi Screening Center, 2013)

Purpose: 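Knock-downs reducing store-operated calcium influx in Drosophila cells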 (primary screen)
Cell system: Drosophila S2R+ cells
Reagent: long dsRNA against Drosophila genes, about 0.25 µg dsRNA per well, roughly 10,000 cells
Duration: 5 days of knock-down before the calcium assay
Conditions: thapsigargin (SERCA pump blocker) to empty calcium stores; entry signal taken 4 min after adding it
Detection: 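Per-well fluo-4 fluorescence in two replicates, unnormalised, measured in resting cells and 4 min after store depletion by the SERCA blocker thapsigargin; ratio of the two present in few wells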
Reading the numbers: calcium entry signal: higher = stronger calcium signal after store depletion; resting calcium signal: higher = higher resting calcium signal
Active means: 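Called when the plate z-score of the entry-to-rest ratio, mean of duplicates, falls below −3; wells with low overall dye signal (Fmax z below −2) or more than five off-targets excluded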
Meaning of the calls: active = strongly reduced calcium entry; inactive = no strong reduction
The deposit covers about 23,000 reagents; shown is a random part of those that have a named target and a result. Of all reagents, 75 (0.33%) were called active. 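Raw plate signals without normalisation; calls rest on plate z-scores that were not deposited; ratio present for only 364 wells.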 The record does not give: the dose of the treatment.

SRPK (SR Protein Kinase) [DRSC07090] showed calcium entry signal, replicate 1 (fluorescence units) = 2.52e7; calcium entry signal, replicate 2 (fluorescence units) = 1.87e7; resting calcium signal, replicate 1 (fluorescence units) = 1.15e7; resting calcium signal, replicate 2 (fluorescence units) = 1.01e7; inactive.
Silencing of CG5276 [DRSC15759] resulted in: calcium entry signal, replicate 1 (fluorescence units) = 3.63e7; calcium entry signal, replicate 2 (fluorescence units) = 3.97e7; resting calcium signal, replicate 1 (fluorescence units) = 1.80e7; resting calcium signal, replicate 2 (fluorescence units) = 2.06e7; inactive.
For CG11298 [DRSC04100], the entry reads calcium entry signal, replicate 1 (fluorescence units) = 2.35e7; calcium entry signal, replicate 2 (fluorescence units) = 3.44e7; resting calcium signal, replicate 1 (fluorescence units) = 1.46e7; resting calcium signal, replicate 2 (fluorescence units) = 1.43e7; inactive.
blw (bellwether) [DRSC04675] gave calcium entry signal, replicate 1 (fluorescence units) = 3.56e7; calcium entry signal, replicate 2 (fluorescence units) = 4.48e7; resting calcium signal, replicate 1 (fluorescence units) = 2.00e7; resting calcium signal, replicate 2 (fluorescence units) = 2.19e7; inactive.
Depletion of Trf4-2 (Topoisomerase related function 4-2) [DRSC15237] gave: calcium entry signal, replicate 1 (fluorescence units) = 4.04e7; calcium entry signal, replicate 2 (fluorescence units) = 4.51e7; resting calcium signal, replicate 1 (fluorescence units) = 1.97e7; resting calcium signal, replicate 2 (fluorescence units) = 1.87e7; inactive.
Depletion of uri (unconventional prefoldin RPB5 interactor) [DRSC04111] gave: calcium entry signal, replicate 1 (fluorescence units) = 3.47e7; resting calcium signal, replicate 1 (fluorescence units) = 1.90e7; inactive.
With knock-down of CG17242 [DRSC00493] the results were calcium entry signal, replicate 1 (fluorescence units) = 3.09e7; calcium entry signal, replicate 2 (fluorescence units) = 2.72e7; resting calcium signal, replicate 1 (fluorescence units) = 1.41e7; resting calcium signal, replicate 2 (fluorescence units) = 1.24e7; inactive.
For scu (scully) [DRSC20369], the values are calcium entry signal, replicate 1 (fluorescence units) = 3.36e7; calcium entry signal, replicate 2 (fluorescence units) = 3.39e7; resting calcium signal, replicate 1 (fluorescence units) = 1.70e7; resting calcium signal, replicate 2 (fluorescence units) = 1.58e7; inactive.
isoQC (iso Glutaminyl cyclase) [DRSC11790] gave calcium entry signal, replicate 1 (fluorescence units) = 2.98e7; calcium entry signal, replicate 2 (fluorescence units) = 4.83e7; resting calcium signal, replicate 1 (fluorescence units) = 1.50e7; resting calcium signal, replicate 2 (fluorescence units) = 2.13e7; inactive.
With knock-down of KFase (Kynurenine formamidase) [DRSC03258], the record shows calcium entry signal, replicate 1 (fluorescence units) = 2.22e7; calcium entry signal, replicate 2 (fluorescence units) = 2.18e7; resting calcium signal, replicate 1 (fluorescence units) = 1.09e7; resting calcium signal, replicate 2 (fluorescence units) = 1.05e7; inactive.
Against mAChR-C (muscarinic Acetylcholine Receptor, C-type) [DRSC17890], the entry reads calcium entry signal, replicate 1 (fluorescence units) = 3.10e7; calcium entry signal, replicate 2 (fluorescence units) = 4.27e7; resting calcium signal, replicate 1 (fluorescence units) = 1.57e7; resting calcium signal, replicate 2 (fluorescence units) = 1.92e7; inactive.
Against CG10543 [DRSC04081], the entry reads calcium entry signal, replicate 1 (fluorescence units) = 4.94e7; calcium entry signal, replicate 2 (fluorescence units) = 6.05e7; resting calcium signal, replicate 1 (fluorescence units) = 2.35e7; resting calcium signal, replicate 2 (fluorescence units) = 2.62e7; inactive.
CG10543 [DRSC23102] scored calcium entry signal, replicate 1 (fluorescence units) = 5.33e7; calcium entry signal, replicate 2 (fluorescence units) = 3.72e7; resting calcium signal, replicate 1 (fluorescence units) = 2.50e7; resting calcium signal, replicate 2 (fluorescence units) = 1.56e7; inactive.

Entries listed so far whose target name begins with S or s:
SRPK (SR Protein Kinase) [DRSC07090] → calcium entry signal, replicate 1 (fluorescence units): 2.52e7; calcium entry signal, replicate 2 (fluorescence units): 1.87e7; resting calcium signal, replicate 1 (fluorescence units): 1.15e7; resting calcium signal, replicate 2 (fluorescence units): 1.01e7; Call: inactive
scu (scully) [DRSC20369] → calcium entry signal, replicate 1 (fluorescence units): 3.36e7; calcium entry signal, replicate 2 (fluorescence units): 3.39e7; resting calcium signal, replicate 1 (fluorescence units): 1.70e7; resting calcium signal, replicate 2 (fluorescence units): 1.58e7; Call: inactive

The listing continues.
Against CecC (Cecropin C) [DRSC16606] the deposit lists calcium entry signal, replicate 1 (fluorescence units) = 3.29e7; calcium entry signal, replicate 2 (fluorescence units) = 4.66e7; resting calcium signal, replicate 1 (fluorescence units) = 1.72e7; resting calcium signal, replicate 2 (fluorescence units) = 1.97e7; inactive.
Depletion of Cog2 (Component of oligomeric golgi complex 2) [DRSC16987] came out at: calcium entry signal, replicate 1 (fluorescence units) = 3.34e7; calcium entry signal, replicate 2 (fluorescence units) = 4.22e7; resting calcium signal, replicate 1 (fluorescence units) = 1.67e7; resting calcium signal, replicate 2 (fluorescence units) = 6.27e7; inactive.
Np (Notopleural) [DRSC06089] gave calcium entry signal, replicate 1 (fluorescence units) = 2.76e7; calcium entry signal, replicate 2 (fluorescence units) = 3.10e7; resting calcium signal, replicate 1 (fluorescence units) = 1.30e7; resting calcium signal, replicate 2 (fluorescence units) = 1.35e7; inactive.
Knock-down of Np (Notopleural) [DRSC07094] resulted in: calcium entry signal, replicate 1 (fluorescence units) = 2.64e7; calcium entry signal, replicate 2 (fluorescence units) = 3.05e7; resting calcium signal, replicate 1 (fluorescence units) = 1.22e7; resting calcium signal, replicate 2 (fluorescence units) = 1.30e7; inactive.
For Np (Notopleural) [DRSC22421] the deposit lists calcium entry signal, replicate 1 (fluorescence units) = 4.42e7; calcium entry signal, replicate 2 (fluorescence units) = 3.76e7; resting calcium signal, replicate 1 (fluorescence units) = 2.06e7; resting calcium signal, replicate 2 (fluorescence units) = 1.57e7; inactive.
Naa30B (N(alpha)-acetyltransferase 30 B) [DRSC08245] showed calcium entry signal, replicate 1 (fluorescence units) = 3.66e7; calcium entry signal, replicate 2 (fluorescence units) = 4.16e7; resting calcium signal, replicate 1 (fluorescence units) = 1.86e7; resting calcium signal, replicate 2 (fluorescence units) = 1.96e7; inactive.
Silencing of Sgs7 (Salivary gland secretion 7) [DRSC11281] gave: calcium entry signal, replicate 1 (fluorescence units) = 2.77e7; calcium entry signal, replicate 2 (fluorescence units) = 3.92e7; resting calcium signal, replicate 1 (fluorescence units) = 1.55e7; resting calcium signal, replicate 2 (fluorescence units) = 1.82e7; inactive.
Depletion of CG15719 [DRSC19685] gave: calcium entry signal, replicate 1 (fluorescence units) = 3.32e7; calcium entry signal, replicate 2 (fluorescence units) = 5.35e7; resting calcium signal, replicate 1 (fluorescence units) = 1.63e7; resting calcium signal, replicate 2 (fluorescence units) = 2.59e7; inactive.
